The list shows a part of the results.
What follows are sequences tested against T1, OsSMF1 (Oryza sativa, UniProt Q6ZLB0 1-436) (assay: protein-binding microarray (RPBM); PBS, 2% BSA, 51.3 ng/ul salmon testes DNA, 50 uM zinc acetate, 200 nM TF, 25 C, 1 h; high values mean tight binding). Conditions: protein: recombinant; tags: N-terminal polyhistidine and DsRed monomer fusion (pET32a); chain copies: 2; label: CyDye5-dUTP incorporated in the synthesized complementary strand; 3' TTTTT single-stranded linker to array surface; dsDNA, one strand shown.
T1 sequence: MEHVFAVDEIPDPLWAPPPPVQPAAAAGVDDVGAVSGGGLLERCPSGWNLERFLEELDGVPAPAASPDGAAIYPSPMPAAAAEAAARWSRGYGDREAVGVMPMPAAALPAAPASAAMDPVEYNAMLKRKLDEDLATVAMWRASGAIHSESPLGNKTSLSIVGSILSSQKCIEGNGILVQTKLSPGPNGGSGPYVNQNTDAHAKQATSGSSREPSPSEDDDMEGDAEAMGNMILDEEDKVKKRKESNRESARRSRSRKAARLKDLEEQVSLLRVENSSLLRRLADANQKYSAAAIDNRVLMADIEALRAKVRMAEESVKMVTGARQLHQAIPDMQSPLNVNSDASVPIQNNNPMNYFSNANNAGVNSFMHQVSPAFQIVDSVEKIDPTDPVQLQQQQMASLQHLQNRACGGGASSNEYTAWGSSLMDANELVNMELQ
Method in brief: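 Binding signal here means per-feature fluorescence intensity in arbitrary units. The values were read on an Axon 4000B scanner after a custom Agilent array, double-stranded by primer extension with Cy5-dUTP, was incubated with 200 nM protein at 25 °C for 1 h in PBS with 2% BSA, salmon testes DNA and 50 µM zinc acetate, then washed. The proteins were transcription factors with an N-terminal polyhistidine tag and DsRed, expressed in E. coli BL21-CodonPlus and purified on Ni–NTA.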

Sequence	binding signal
ATTCACAGTGCTTACTTGCAGCTACTGCAATGACGCGTGCCGGAGTCACCTAGTGCAG	5640 fluorescence intensity (a.u.)
GATATGTGGGTCCAGTGACAAATCATTTATCACCATCCGTCGGAGTCACCTAGTGCAG	3490 fluorescence intensity (a.u.)
AAATTAGCCTGTCACCATCATCACCAAAAGACGACCATAGCGGAGTCACCTAGTGCAG	4130 fluorescence intensity (a.u.)
ATCGCCGCCGACGTGGCGTTCTTCTTCTCGGCAACGCCGTCGGAGTCACCTAGTGCAG	13500 fluorescence intensity (a.u.)
GCAGCCGCCATGGCTGCTCCTCCTCCACCTCATCGCCATCCGGAGTCACCTAGTGCAG	6450 fluorescence intensity (a.u.)
TTATCGGATATTGAAATAGATTATTTGCTTCACTCTTCCACGGAGTCACCTAGTGCAG	3280 fluorescence intensity (a.u.)
TTTTGCTGTGGTGGGAGTGGATTTGGAGGGCGTATCGGGGCGGAGTCACCTAGTGCAG	3980 fluorescence intensity (a.u.)
TTCCCTCGGAAGCCTTAAAAGTTGAACTTGTGCACTACTACGGAGTCACCTAGTGCAG	19700 fluorescence intensity (a.u.)
GATGGGCCCCACGTGTCATACATGCCCGCCTTACTTCGCGCGGAGTCACCTAGTGCAG	13800 fluorescence intensity (a.u.)
GACGGGTTCTATGGGATGCCGTCATCGGTGAGCCATCCAGCGGAGTCACCTAGTGCAG	4690 fluorescence intensity (a.u.)
GGAGGAGTCGCGGACGCGATCCGTTTCGCCCGTGACGCGGCGGAGTCACCTAGTGCAG	9210 fluorescence intensity (a.u.)
CGCACATCCATCCACGTCATCGATCCGCGCCGCGTGCCTTCGGAGTCACCTAGTGCAG	28400 fluorescence intensity (a.u.)
GCAATTCAGTGAACCACGAAAGGTAGCCTGCCTTGGCTGCCGGAGTCACCTAGTGCAG	3200 fluorescence intensity (a.u.)
GAAAATACTTACTAGATTGCCACGCGTACGCCACGTAGGACGGAGTCACCTAGTGCAG	30700 fluorescence intensity (a.u.)
TAATTTTGAAGCCTGGTCCAGTCCACGCCACCAACGGACGCGGAGTCACCTAGTGCAG	3880 fluorescence intensity (a.u.)
TGCTGCCTTGTACATGTCTCCAACAACAAGAAGAAAGTCACGGAGTCACCTAGTGCAG	3240 fluorescence intensity (a.u.)
ACACAGCCTAACTAACAAAACCGTTGACTCACCAATCGCCCGGAGTCACCTAGTGCAG	7900 fluorescence intensity (a.u.)
GGAGTATTAGCTAGTCATCATTTGTTCTCTTCACCGACCGCGGAGTCACCTAGTGCAG	3390 fluorescence intensity (a.u.)
GATTTACCGCCAAATATACAGAGAAGGAATGAGCCATGGACGGAGTCACCTAGTGCAG	25600 fluorescence intensity (a.u.)
ATGATCAACCAGCAGATGTGTTGTATTTGAGGTTCTGCTACGGAGTCACCTAGTGCAG	3730 fluorescence intensity (a.u.)
ATTTCCCTTCCCTTTCTTTCTTTCTTTCTTTCTTTCTTTCCGGAGTCACCTAGTGCAG	3390 fluorescence intensity (a.u.)

Sequence	binding signal
TAGGGTAGCAATTTAAACTGGCCCGTAACTTTTATGTAAGCGGAGTCACCTAGTGCAG	8730 fluorescence intensity (a.u.)
TTATGTCCATCTATTCTTACGTGAAAGTAACCTAATGCATCGGAGTCACCTAGTGCAG	28700 fluorescence intensity (a.u.)
TCAGCTCAGAAATTCTTCTGCTATACTCACCCACTTGCCACGGAGTCACCTAGTGCAG	3450 fluorescence intensity (a.u.)
GGGCCAGTTTGCTCGTACAACTCACACACACTCATATCCACGGAGTCACCTAGTGCAG	3430 fluorescence intensity (a.u.)
CTACTACGTACCATTAGTCCAACACGTACGTACCACTGAGCGGAGTCACCTAGTGCAG	4460 fluorescence intensity (a.u.)
ACCTCTGGTAGCAGCAGCAGCTCGCACGCAGCTCATCGTGCGGAGTCACCTAGTGCAG	40700 fluorescence intensity (a.u.)
TGGCTCCGCCACGTCCTCGTCGCCTGGAACTCGCTCGTCTCGGAGTCACCTAGTGCAG	12300 fluorescence intensity (a.u.)
GATTTCATTCACCAACGCATGATTTCGTTCCCCACCGCAGCGGAGTCACCTAGTGCAG	4220 fluorescence intensity (a.u.)
CTATCATAGCACGTGGCCGCATCTCCTGTTGCCTTTCCTACGGAGTCACCTAGTGCAG	4810 fluorescence intensity (a.u.)
CTAAGTATGGCGTTATACGATGTGGAGGCATTCATGCGAGCGGAGTCACCTAGTGCAG	3280 fluorescence intensity (a.u.)
CCGCCGCAGCCGCAGCCGGCCAAGCTGGGCGTCGGCGACACGGAGTCACCTAGTGCAG	39700 fluorescence intensity (a.u.)
GTCAAAGATGCCACGTAGAATAAAACCTCCTACGAAACCCCGGAGTCACCTAGTGCAG	4160 fluorescence intensity (a.u.)
CAGCATCGTCTGAAGAAGCACAGGAGCAGGGGAGATATGGCGGAGTCACCTAGTGCAG	3380 fluorescence intensity (a.u.)
ATCCTATGAAATTTCTATATAATGACTCATTGCATGTAGACGGAGTCACCTAGTGCAG	4680 fluorescence intensity (a.u.)
ACACACTCCTGGAAATTACTTATTGGCTTAGATCGCTGACCGGAGTCACCTAGTGCAG	4840 fluorescence intensity (a.u.)
TTGGCATTTGGCTCGGATGGCGCCACGTAGCATTTGCAGGCGGAGTCACCTAGTGCAG	7940 fluorescence intensity (a.u.)
TCGCAGCGCCAGTGCAGGCGGGCACGTTGGGTGTGTAGCCCGGAGTCACCTAGTGCAG	4290 fluorescence intensity (a.u.)
GACCATAAGTGTCCACGTATGCAAAACTCGACCTCCGTTTCGGAGTCACCTAGTGCAG	13800 fluorescence intensity (a.u.)
TCGTAGTATCACACACTTCACACCACGTCACCACGCCCTCCGGAGTCACCTAGTGCAG	20200 fluorescence intensity (a.u.)
GGTAACTGACGAGATTTGCATCCTTATTTCTAGCTAGTCCCGGAGTCACCTAGTGCAG	3410 fluorescence intensity (a.u.)
TGCCCCGCCTGTCACCCACTCCGGCTGCCGCTCCACCGCTCGGAGTCACCTAGTGCAG	3160 fluorescence intensity (a.u.)

For convenience, part of the list above:
Sequence	binding signal
TTGGCATTTGGCTCGGATGGCGCCACGTAGCATTTGCAGGCGGAGTCACCTAGTGCAG	7940 fluorescence intensity (a.u.)
TCGCAGCGCCAGTGCAGGCGGGCACGTTGGGTGTGTAGCCCGGAGTCACCTAGTGCAG	4290 fluorescence intensity (a.u.)
